The other results are listed elsewhere or left out. Further columns of the screen follow, without active or inactive calls. Compounds called inactive in the main read-out are mostly missing here. Potencies come from curve fits of mixed quality, noted in brackets.
Test: qHTS Assay for Lipid Storage Modulators in Drosophila S3 Cells;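 for cell number change: cells counted by Cell Tracker Red CMTPX staining in the red channel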
Conditions: BODIPY lipid droplet fluorescence, 18-24 h; for cell number change: measured here: cell count max response, cells fed with added oleic acid
Outline: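 Drosophila S3 cells loaded with oleic acid (400 uM, as added) and compounds at several concentrations; lipid droplets imaged by 488-nm laser-scanning cytometry, 500–530 nm intensity and object ratio to cell channel. Percent activity normalized to 20 uM Triacsin C.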

[1] = measured here: lipid fluorescence (Fed channel) AC50, cells fed with added oleic acid
[2] = measured here: cell number channel AC50, cells fed with added oleic acid

| Structure (SMILES) | cell number change [%] | AC50 [1] | AC50 [2] |
| --- | --- | --- | --- |
| Cc1nn(CC(=O)Nc2ccc(F)cc2)c(=O)c2ccccc12 | -26.2 |  |  |
| Cn1nc(C(=O)Nc2nc3ccccc3[nH]2)ccc1=O | -28.7 |  |  |
| CCOc1ccc(N(CC(=O)NCc2ccccc2Cl)S(=O)(=O)c2c(C)noc2C)cc1 | -6.13 | 29.1 µM [falling, single point] |  |
| Cc1cc(NC(=O)c2cc(CC(C)C)on2)no1 | -29.1 | 6.51 µM [falling, single point] | 3.26 µM [falling, full curve, poor fit] |
| CCN=c1sc(C(=O)NCCc2ccccc2)cc(=O)n1CC | -27.8 | 9.2 µM [falling, partial curve] |  |
| CCOc1ccccc1NC(=O)Nc1ccc(Cl)cc1 | -22.7 | 0.0326 µM [rising, full curve, poor fit] |  |
| C[C@H](NC(=O)OC(C)(C)C)C(=O)NCC1CCC(C(=O)N[C@@H](Cc2ccccc2)C(=O)O)CC1 (stereo partly drawn) | 34.6 | 0.411 µM [rising, full curve, poor fit] | 32.6 µM [rising, partial curve, poor fit] |
| CC1CCCCN1C(=O)CN1C(=O)c2ccccc2S1(=O)=O (stereo not drawn) | -14.9 | 32.6 µM [rising, single point] |  |
| O=C(COc1cccc(Cl)c1)N/N=C\c1cc2ccccc2nc1Cl |  | 1.84 µM [rising, partial curve] | 1.03 µM [rising, partial curve] |
| COc1ccc(NC(=O)NCc2ccccc2F)cc1OC | 6.75 |  |  |
| COc1ccc(CCC(=O)NCCS(=O)(=O)N2CCN(c3ccccc3OC)CC2)cc1 |  | 6.51 µM [falling, single point] |  |
| CCOC(=O)CSc1nc2cc(C(=O)NCc3ccco3)ccc2c(=O)n1-c1ccc(F)cc1 |  | 6.51 µM [falling, single point] | 6.51 µM [falling, single point] |
| COCC(=O)N(Cc1cc2cc(OC)ccc2[nH]c1=O)c1ccccc1OC | -1.76 | 29.1 µM [falling, single point] |  |
| CN1c2ccccc2Sc2cc(N)ccc21 | -43.2 | 29.1 µM [falling, single point] | 18.4 µM [falling, single point] |
| CN(C)c1nc(Oc2ccc(=O)n(C)n2)nc(N2CCOCC2)n1 | -135 |  | 23.1 µM [falling, single point] |
| O=c1ccc(-c2ccccc2)nn1Cc1ccc(F)cc1Cl | -12.1 |  | 0.00461 µM [falling, full curve, poor fit] |
| Cc1cc(C(=O)CSc2nnc3ccccn23)c(C)n1-c1ccccc1 | 83.3 | 10.3 µM [rising, partial curve] | 29.1 µM [rising, single point] |
| CCn1cc(C(=S)N2CCC(C(N)=O)CC2)c2ccccc21 | 30.5 | 2.06 µM [falling, partial curve] | 3.26 µM [falling, partial curve] |
| CCC(=O)Nc1ccc(NCc2cccs2)cc1 | -8.14 | 0.651 µM [falling, partial curve, poor fit] |  |
| Cc1cc(C)n(-c2ncnc3sc4c(c23)CCCC4)n1 | -4.98 | 2.59 µM [falling, partial curve, poor fit] |  |

One compound at a time (already shown).
Cc1cc(NC(=O)c2cc(CC(C)C)on2)no1 in the list: cell number change [%]: -29.1; AC50 [1]: 6.51 µM [falling, single point]; AC50 [2]: 3.26 µM [falling, full curve, poor fit]
CCn1cc(C(=S)N2CCC(C(N)=O)CC2)c2ccccc21 in the list: cell number change [%]: 30.5; AC50 [1]: 2.06 µM [falling, partial curve]; AC50 [2]: 3.26 µM [falling, partial curve]
COc1ccc(NC(=O)NCc2ccccc2F)cc1OC in the list: cell number change [%]: 6.75
CCN=c1sc(C(=O)NCCc2ccccc2)cc(=O)n1CC in the list: cell number change [%]: -27.8; AC50 [1]: 9.2 µM [falling, partial curve]

Next part

| Structure (SMILES) | cell number change [%] | AC50 [1] | AC50 [2] |
| --- | --- | --- | --- |
| Cc1ccc(NC(=O)CN(C)C(=O)CNC(=O)c2sc3ccccc3c2Cl)cc1 | 39 | 16.4 µM [rising, partial curve, poor fit] | 13 µM [rising, partial curve, poor fit] |
| CCN1CN=C(NS(=O)(=O)c2ccc(C)cc2)NC1 | -16.9 |  | 0.0058 µM [falling, full curve, poor fit] |
| C=CCC1Cc2c(cccc2[N+](=O)[O-])C(CC=C)N1 (stereo not drawn) | -18.1 | 4.61 µM [falling, full curve] | 7.31 µM [falling, partial curve, poor fit] |
| CCOC(=O)C1CCN(C(=O)Nc2ccc(NC(=O)C3CCN(C(=O)OCC)CC3)cc2)CC1 | -29.9 | 3.26 µM [falling, full curve] |  |
| COC(=O)c1ccc(CSc2nnnn2C)o1 | -33.8 |  | 0.103 µM [falling, full curve, poor fit] |
| Cc1ccc(-n2c(CCc3ccccc3)nnc2SCC(=O)NCc2ccccc2)cc1C | -48.2 | 6.51 µM [rising, single point] | 0.731 µM [rising, partial curve] |
| CCCCOC(=O)Nc1nc2ccccc2s1 | -5.2 |  |  |
| COc1ccc(-c2[nH]c(-c3ccc(F)cc3)nc2SCC(=O)NC2CCCC2)cc1 | 0.323 |  |  |
| N#Cc1nc(-c2ccc(F)cc2)oc1N1CCN(C(=O)c2ccco2)CC1 | -36.3 |  | 14.1 µM [falling, single point] |
| CCOC(=O)CCCNC(=O)CCNC(=O)c1ccc(OCCC(C)C)cc1 | -61.3 | 0.103 µM [falling, full curve] | 0.58 µM [falling, full curve, poor fit] |
| CCOC(=O)N1CCN(C(=O)COc2cccc3c2CCN(Cc2ccc(F)cc2)C3=O)CC1 | -15.9 |  |  |
| O=C(Oc1ccc(N2C(=O)CCC2=O)cc1)c1ccco1 | -31.8 | 3.66 µM [falling, full curve] | 3.66 µM [falling, full curve, poor fit] |
| CCCCOC(=O)/C=C\C(=O)NC(N)=O | -17 | 29.1 µM [falling, single point] |  |
| O=C(Cn1ncc2c3ccccc3n(Cc3ccccc3F)c2c1=O)N1CCN(c2ccccn2)CC1 | -4.9 | 0.58 µM [falling, single point] |  |
| C=CCC1(CC=C)CCCN1C(=O)c1cc(COc2ccccc2SC)on1 | 18.8 |  |  |
| COc1cccc(OCCSc2nc(N)cc(N)n2)c1 | -172 |  | 29.1 µM [falling, single point] |
| COc1ccc(S(=O)(=O)Nc2cccc(-c3ccc4nncn4n3)c2)cc1 | 33.9 | 2.91 µM [rising, full curve] | 1.46 µM [rising, full curve] |
| CCOC(=O)c1[nH]c(=O)[nH]c1CSCCO | -21.5 |  |  |
| COc1ccc(C2C(C(=O)c3sc(C)nc3C)=C(O)C(=O)N2CCN(C)C)cc1OC (stereo not drawn) | 12.7 | 5.8 µM [falling, single point] |  |
| Cc1ccc(C2C=C(c3ccccc3OC(F)F)Nc3ncnn32)cc1 (stereo not drawn) |  | 0.13 µM [rising, full curve, poor fit] | 0.13 µM [rising, full curve, poor fit] |

| Structure (SMILES) | cell number change [%] | AC50 [1] | AC50 [2] |
| --- | --- | --- | --- |
| CCCCCc1nc2c(c3c1CCCC3)CCCC2 | 6.94 | 4.11 µM [falling, single point] |  |
| O=C1CC(c2ccccc2)=NN1c1nc(-c2ccccc2)cs1 | 6.23 |  |  |
| COc1ccc(C(=O)ON=C2CCN(c3ccc([N+](=O)[O-])cc3)CC2)cc1 | -24.7 | 16.4 µM [falling, partial curve] |  |
| COc1ccc(Cn2nnnc2C(CC(C)C)N2CCC(C(N)=O)CC2)cc1 (stereo not drawn) | -22.8 | 0.731 µM [falling, full curve, poor fit] |  |
| Nc1ccc(NC(=O)Nc2ccc(N)cc2)cc1 | 0.595 | 0.00517 µM [falling, full curve, poor fit] |  |
| C=CCn1c(SCC(=O)N(C)C)nc2cc(C(=O)O)ccc2c1=O | -6.16 | 6.51 µM [rising, single point] |  |
| COc1cc2c(cc1OC)CN(Cc1ccc(C)cc1)CC2 | 12.2 | 0.13 µM [rising, full curve, poor fit] |  |
| CCOC(=O)C1CCN(CC(=O)N2CCc3ccccc32)CC1 | 17.1 | 29.1 µM [falling, single point] |  |
| CC(C)N(Cc1cnn(C)c1)Cc1nc(Cc2ccccc2Cl)no1 | 13.5 | 29.1 µM [rising, single point] |  |
| O=C(COc1ccc2c(-c3ccccc3)cc(=O)oc2c1)NCC1CCC(C(=O)O)CC1 (stereo not drawn) | 37.5 | 2.91 µM [rising, full curve] | 0.00461 µM [rising, full curve, poor fit] |
| CN1CCN(c2ccc(CNS(=O)(=O)c3ccc(Cl)cc3)cc2)CC1 | -4.13 | 0.00461 µM [falling, full curve, poor fit] |  |
| CCOC(=O)CNS(=O)(=O)c1cc(-c2nn(C)c(=O)c3ccccc23)ccc1C | 18.4 |  |  |
| Cc1ccc(S(=O)(=O)N2CCN(C(=O)C(C)Cn3nc(C)c(C)c3C)CC2)cc1C (stereo not drawn) | -4.76 |  |  |
| COc1cccc(-n2c(CN3CCN(Cc4ccccc4)CC3)nc3ccc([N+](=O)[O-])cc3c2=O)c1 | 21.9 |  |  |
| Cc1cccc(NS(=O)(=O)c2ccc(C(=O)N3CC(C)OC(C)C3)cc2)c1C (stereo not drawn) | 64 |  | 8.2 µM [rising, partial curve] |
| CCCC(C(=O)NCc1ccc(OC)cc1)N(Cc1ccco1)C(=O)c1snc(C(N)=O)c1N (stereo not drawn) | -31 |  | 7.31 µM [falling, full curve, poor fit] |
| COc1ccc(CCCC(=O)NCCc2ccccc2)c(C)c1 | 7.37 |  |  |
| COc1ccccc1CNC(=O)c1cc(S(=O)(=O)N2CCCCC2)c[nH]1 | -18.9 |  |  |
| O=C(c1ccc2c(c1)OCCO2)C1CCN(C(=O)c2ccc(F)c(F)c2)CC1 | -21.8 | 2.59 µM [rising, single point] |  |
| C/C(=N\Nc1c(F)c(F)c(Br)c(F)c1F)c1ccncc1 | -39.2 | 1.64 µM [falling, partial curve] | 16.4 µM [falling, single point] |

From PubChem BioAssay AID2685 (National Center for Advancing Translational Sciences (NCATS), 2010)
